# Data as given in article PMC8717606.
# Amino acid sequences for entries named in this document (tags omitted). A change or cut given only in a name is not applied to a line headed by its entry.
# UniProt P24001: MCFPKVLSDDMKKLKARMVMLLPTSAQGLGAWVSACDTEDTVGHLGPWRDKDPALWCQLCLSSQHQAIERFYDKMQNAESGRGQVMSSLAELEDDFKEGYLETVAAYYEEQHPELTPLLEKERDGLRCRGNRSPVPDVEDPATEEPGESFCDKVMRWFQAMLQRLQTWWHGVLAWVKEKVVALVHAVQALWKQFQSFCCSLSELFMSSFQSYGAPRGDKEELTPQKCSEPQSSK
# UniProt Q9UI09: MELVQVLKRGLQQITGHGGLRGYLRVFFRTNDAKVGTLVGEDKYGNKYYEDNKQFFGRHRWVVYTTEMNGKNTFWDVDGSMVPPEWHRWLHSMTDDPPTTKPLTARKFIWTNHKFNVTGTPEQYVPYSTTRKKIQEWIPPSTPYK
# Target: Interleukin 32 (IL32) (Homo sapiens) (UniProt P24001)
# Experiment: co-IP; endogenous IL-32 pulled down by the same protocol in INA-6, H929 and JJN-3 cells; ATP5D and NDUFA12 detected by western blotting
substance,measurement,value
NADH:ubiquinone oxidoreductase subunit A12 (NDUFA12) (from UniProt Q9UI09 1-145),binding,binds

# No constants are given. Whether binding was seen depends on the method and setting. In cells and extracts the contact can be indirect. Binding can be weak; no strength is given.
